Data on two substances can be found in PMC8032703.

No constants are given. Whether binding was seen depends on the method and setting. For some of these results: A result given as binding can be weak or reduced; the word gives no strength. Where a sequence is shown, tags or fusion partners need not be part of it.

For experiment [1], the target named is T1, FlgL (hook-associated protein, HAP3), pKT25-flgL two-hybrid fusion (Vibrio vulnificus).
T1 sequence: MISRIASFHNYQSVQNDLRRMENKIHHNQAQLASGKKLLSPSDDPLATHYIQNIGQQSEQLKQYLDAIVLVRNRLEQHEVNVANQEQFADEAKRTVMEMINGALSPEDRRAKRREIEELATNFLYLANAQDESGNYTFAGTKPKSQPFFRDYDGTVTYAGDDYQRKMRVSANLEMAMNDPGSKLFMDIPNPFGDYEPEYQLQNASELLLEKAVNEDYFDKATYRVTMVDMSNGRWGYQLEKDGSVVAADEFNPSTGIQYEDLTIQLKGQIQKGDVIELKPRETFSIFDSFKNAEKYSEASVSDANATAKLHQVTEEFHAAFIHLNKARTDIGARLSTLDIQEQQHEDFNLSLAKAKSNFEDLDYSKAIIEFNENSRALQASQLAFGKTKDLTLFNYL
Briefly: two-hybrid; bacterial two-hybrid in E. coli BTH101: pUT18c with flaB or flaC, pKT25 with flgK, flgL or fliD; colour on X-gal plates (40 μg/ml X-gal, 0.5 mM IPTG) and β-galactosidase activity with ONPG in Miller units.

The target of experiment [2] is T2, FlgK (hook-associated protein, HAP1), pKT25-flgK two-hybrid fusion (Vibrio vulnificus).
T2 sequence: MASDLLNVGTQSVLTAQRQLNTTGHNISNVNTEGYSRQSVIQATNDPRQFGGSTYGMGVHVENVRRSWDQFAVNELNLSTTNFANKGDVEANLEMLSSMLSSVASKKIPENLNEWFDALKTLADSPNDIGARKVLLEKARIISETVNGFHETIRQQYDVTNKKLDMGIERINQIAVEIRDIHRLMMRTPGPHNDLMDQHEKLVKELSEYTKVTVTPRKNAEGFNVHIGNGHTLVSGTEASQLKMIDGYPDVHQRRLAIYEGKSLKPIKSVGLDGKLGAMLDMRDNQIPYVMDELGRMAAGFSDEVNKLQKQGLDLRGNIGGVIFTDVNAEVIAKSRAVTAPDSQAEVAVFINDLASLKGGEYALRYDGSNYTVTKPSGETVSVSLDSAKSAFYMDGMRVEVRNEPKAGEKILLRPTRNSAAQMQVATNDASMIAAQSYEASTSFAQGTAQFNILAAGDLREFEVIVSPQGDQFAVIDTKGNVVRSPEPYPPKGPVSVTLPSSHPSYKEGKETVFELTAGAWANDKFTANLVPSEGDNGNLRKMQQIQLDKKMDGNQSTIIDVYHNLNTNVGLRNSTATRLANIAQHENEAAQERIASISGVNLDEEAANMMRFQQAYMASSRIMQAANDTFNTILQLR
The experiment is described as above.

“FlaB (flagellin subunit), pUT18c-flaB two-hybrid fusion (Vibrio vulnificus MO6-24/O)”: the figures for the binding result in experiment [1] and in experiment [2] were “binds” and “no binding”, respectively.

Regarding “FlaC (flagellin subunit), pUT18c-flaC two-hybrid fusion (Vibrio vulnificus MO6-24/O)”, the values for the binding entry in experiment [1] and in experiment [2] were “binds” and “no binding”, respectively.
